PubChem BioAssay AID1259286 – Sanger Institute, 2017

Screen: 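Kinase knock-downs that reduce colorectal cancer cell viability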 (primary screen)
Cell system: NCI-H630 human colorectal cancer cells
Knock-down reagent: siRNA pool against human genes
Treatment: anchor drugs BYL719 at 1 µM, cetuximab at 5 µg/ml or trametinib at 10 nM, or DMSO vehicle alone; exposure time not given
Measurement: 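Viability relative to non-targeting pool wells, averaged over replicates, with robust z-score for knock-down alone and a synergy score for each anchor drug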
Scale: viability z-score, knock-down alone: higher = more viable cells, weaker knock-down effect
Call rule: 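Essential call: robust z-score of viability with siRNA alone lower than -3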
Calls: active = essential when knocked down alone; inactive = not essential alone
In all, the deposit lists 794 reagents; below is a part drawn at random. 17 of all reagents (2.1%) count as active. 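Calls use knock-down alone only; synergy above 0.15 marked separately; viability seems capped at control level; exposure time not given.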 Further read-outs or replicates are left out here. The record does not give: the amount of reagent, the time to read-out.

no.	gene knocked down	viability z-score, knock-down alone	Outcome
1	CAMK2A	-0.523	inactive
2	BRD2	0.464	inactive
3	BMPR1A	0.464	inactive
4	CHD9	0.464	inactive
5	JAK1	0.464	inactive
6	ROCK2	-0.613	inactive
7	GAK	0.464	inactive
8	ELF3	0.0326	inactive
9	ROR2	0.464	inactive
10	LMTK1	-2.42	inactive
11	GNE	0.464	inactive
12	GOLGA5	0.0848	inactive
13	SCYL1	0.464	inactive

Entries above whose target name begins with C or c (2):
gene knocked down	viability z-score, knock-down alone	Outcome
CAMK2A	-0.523	inactive
CHD9	0.464	inactive

Additional entries follow.
no.	gene knocked down	viability z-score, knock-down alone	Outcome
14	KSR2	0.464	inactive
15	WEE1	-7.72	active
16	PANK4	0.464	inactive
17	EIF2AK1	-0.101	inactive
18	CDKL4	0.464	inactive
19	PRKAR2A	0.305	inactive
20	PRKX	0.464	inactive
